Experimental data from patent US10604494B2, “Acylated N-(1 ,2,5-oxadiazol-3-yl)-, N-(1,3,4-oxadiazol-2-yl)-, N-(tetrazol-5-yl)- and N-(triazol-5-yl)-aryl carboxamides, and use thereof as herbicides” (Bayer CropScience Aktiengesellschaft, priority 2015, dated 2020).
Some of these results come from one statement about several compounds together.

How the values were obtained:
Format in all cases: in vivo
[1] = tested on: Abutilon theophrasti; assay: Pre-emergence herbicidal action against harmful plants; settings: application rate 320 g/ha, scored visually after 3 weeks vs untreated controls, 100% = plants have died, 0% = like control plants
Source text: (§1) 1. Pre-Emergence Herbicidal Action Against Harmful Plants Seeds of monocotyledonous and dicotyledonous weed plants and crop plants are laid out in sandy loam in wood-fiber pots and covered with soil. The compounds of the invention, formulated in the form of wettable powders (WP) or as emulsion concentrates (EC), are then applied to the surface of the covering soil in the form of an aqueous suspension or emulsion at a water application rate equating to 600 to 800 I/ha, with addition of 0.2% wetting agent. After the treatment, the pots are placed in a greenhouse and kept under good growth conditions for the trial plants. The damage to the test plants is scored visually after a test period of 3 weeks by comparison with untreated controls (herbicidal activity in percent (%): 100% activity=the plants have died, 0% activity=like control plants). In this case, for example, compound Nos. 1-086, 1-028, 1-206, 1-447, 1-448, 1-449, 1-454, 1-458, 1-470, 1-471, 1-472, 1-477, 1-487, 2-477, 2-480, 2-500, 3-143, 3-475, 3-491, 4-188, 4-495, 4-430, 4-496, 13-001, 13-031 and 13-032, at an application rate of 320 g/ha, each show at least 80% efficacy against Abutilon theophrasti and Veronica persica.

[2] = tested on: Veronica persica; assay: as above; settings: application rate 320 g/ha, scored visually after 3 weeks vs untreated controls, 100% = plants have died, 0% = like control plants
Source text: as §1

[3] = tested on: Abutilon theophrasti; assay: Post-emergence herbicidal action against harmful plants; settings: one-leaf stage, application rate 80 g/ha, assessed visually after about 3 weeks vs untreated controls, 100% = plants have died, 0% = like control plants
Protocol: (§2) 2. Post-Emergence Herbicidal Action Against Harmful Plants Seeds of monocotyledonous and dicotyledonous weed and crop plants are laid out in sandy loam soil in wood-fiber pots, covered with soil and cultivated in a greenhouse under good growth conditions. 2 to 3 weeks after sowing, the test plants are treated at the one-leaf stage. The compounds of the invention, formulated in the form of wettable powders (WP) or as emulsion concentrates (EC), are then sprayed onto the green parts of the plants in the form of an aqueous suspension or emulsion at a water application rate equating to 600 to 800 I/ha, with addition of 0.2% wetting agent. After the test plants have been left to stand in the greenhouse under optimal growth conditions for about 3 weeks, the action of the preparations is assessed visually in comparison to untreated controls (herbicidal action in percent (%): 100% activity=the plants have died, 0% activity=like control plants). In this case, for example, compound Nos. 1-028, 1-085, 1-086, 1-206, 1-447, 1-448, 1-449, 1-453, 1-457, 1-460, 1-470, 1-471, 1-472, 1-487, 2-500, 3-143, 3-146, 3-487, 3-491, 3-492, 4-144, 4-188, 13-001, 13-031 and 13-032, at an application rate of 80 g/ha, each show at least 80% efficacy against Abutilon theophrasti and Veronica persica.

[4] = tested on: Veronica persica; assay: as above; settings: one-leaf stage, application rate 80 g/ha, assessed visually after about 3 weeks vs untreated controls, 100% = plants have died, 0% = like control plants
Protocol: as §2

| SMILES | efficacy (herbicidal activity in percent) against Abutilon theophrasti [1] | efficacy (herbicidal activity in percent) against Veronica persica [2] | efficacy (herbicidal action in percent) against Abutilon theophrasti [3] | efficacy (herbicidal action in percent) against Veronica persica [4] |
| --- | --- | --- | --- | --- |
| CCn1nnnc1N(C(=O)c1ccc(Cl)c(C2CC(C)=NO2)c1SC)C(=O)c1ccc(Cl)c(C2CC(C)=NO2)c1SC (mixture of isomers) [2-500] | at least 80% | at least 80% | at least 80% | at least 80% |
| COc1ccc(C(=O)N(C(=O)c2ccc(C(F)(F)F)cc2S(C)(=O)=O)c2nnnn2C)cc1 [13-032] | at least 80% | at least 80% | at least 80% | at least 80% |
| Cn1nnnc1N(C(=O)c1ccc(Cl)cc1)C(=O)c1ccc(C(F)(F)F)cc1S(C)(=O)=O [13-031] | at least 80% | at least 80% | at least 80% | at least 80% |
| CCn1nnnc1N(C(=O)c1ccc(Cl)c(C(OC)C(C)C)c1Cl)C(=O)c1ccc(Cl)c(C(OC)C(C)C)c1Cl (mixture of isomers) [2-480] | at least 80% | at least 80% |  |  |
| CCn1nnnc1N(C(=O)c1ccc(OC)c(COC)c1Cl)C(=O)c1ccc(OC)c(COC)c1Cl [2-477] | at least 80% | at least 80% |  |  |
| CSc1cccc(C(=O)N(C(=O)c2cccc(SC)c2C)c2nnnn2C)c1C [1-085] |  |  | at least 80% | at least 80% |
| COCc1c(S(C)(=O)=O)ccc(C(=O)N(C(=O)c2ccc(S(C)(=O)=O)c(COC)c2Br)c2ncnn2C)c1Br [3-491] | at least 80% | at least 80% | at least 80% | at least 80% |
| COCc1c(C(=O)N(C(=O)c2ccc(C(F)(F)F)c(SC)c2COC)c2nonc2C)ccc(C(F)(F)F)c1SC [4-495] | at least 80% | at least 80% |  |  |
| CSc1ccc(C(=O)N(C(=O)c2ccc(SC)c(C3CC(C)=NO3)c2Cl)c2nnnn2C)c(Cl)c1C1CC(C)=NO1 (mixture of isomers) [1-487] | at least 80% | at least 80% | at least 80% | at least 80% |
| CSc1ccc(C(=O)N(C(=O)c2ccc(SC)c(C3CC(C)=NO3)c2Cl)c2ncnn2C)c(Cl)c1C1CC(C)=NO1 (mixture of isomers) [3-487] |  |  | at least 80% | at least 80% |
| COCc1c(OC)ccc(C(=O)N(C(=O)c2ccc(OC)c(COC)c2Cl)c2nnnn2C)c1Cl [1-477] | at least 80% | at least 80% |  |  |
| CSc1c(C(F)(F)F)ccc(C(=O)N(C(=O)c2ccc(C(F)(F)F)c(SC)c2C)c2ncnn2C)c1C [3-143] | at least 80% | at least 80% | at least 80% | at least 80% |
| Cn1ncnc1N(C(=O)c1ccc(C(F)(F)F)c(F)c1Br)C(=O)c1ccc(C(F)(F)F)c(F)c1Br [3-492] |  |  | at least 80% | at least 80% |
| CSCc1c(C(F)(F)F)ccc(C(=O)N(C(=O)c2ccc(C(F)(F)F)c(CSC)c2C)c2nonc2C)c1C [4-430] | at least 80% | at least 80% |  |  |
| CCSc1c(C(F)(F)F)ccc(C(=O)N(C(=O)c2ccc(C(F)(F)F)c(SCC)c2C)c2ncnn2C)c1C [3-146] |  |  | at least 80% | at least 80% |
| COCCSc1c(C(F)(F)F)ccc(C(=O)N(C(=O)c2ccc(C(F)(F)F)c(SCCOC)c2COC)c2nonc2C)c1COC [4-496] | at least 80% | at least 80% |  |  |
| CCS(=O)(=O)c1c(C(F)(F)F)ccc(C(=O)N(C(=O)c2ccc(C(F)(F)F)c(S(=O)(=O)CC)c2Cl)c2ncnn2C)c1Cl [3-475] | at least 80% | at least 80% |  |  |
| COc1c(C(=O)N(C(=O)c2ccc(Cl)c(Cn3ncnn3)c2OC)c2nnnn2C)ccc(Cl)c1Cn1ncnn1 [1-470] | at least 80% | at least 80% | at least 80% | at least 80% |
| Cc1c(C(=O)N(C(=O)c2cccc([S+](C)[O-])c2C)c2nnnn2C)cccc1[S+](C)[O-] (stereo not drawn) [1-086] | at least 80% | at least 80% | at least 80% | at least 80% |
